Drawing on paper PMC7865483, this text covers binding for one molecule.

The chains behind the UniProt entries cited, without tags or fusion partners.
UniProt Q8TE04: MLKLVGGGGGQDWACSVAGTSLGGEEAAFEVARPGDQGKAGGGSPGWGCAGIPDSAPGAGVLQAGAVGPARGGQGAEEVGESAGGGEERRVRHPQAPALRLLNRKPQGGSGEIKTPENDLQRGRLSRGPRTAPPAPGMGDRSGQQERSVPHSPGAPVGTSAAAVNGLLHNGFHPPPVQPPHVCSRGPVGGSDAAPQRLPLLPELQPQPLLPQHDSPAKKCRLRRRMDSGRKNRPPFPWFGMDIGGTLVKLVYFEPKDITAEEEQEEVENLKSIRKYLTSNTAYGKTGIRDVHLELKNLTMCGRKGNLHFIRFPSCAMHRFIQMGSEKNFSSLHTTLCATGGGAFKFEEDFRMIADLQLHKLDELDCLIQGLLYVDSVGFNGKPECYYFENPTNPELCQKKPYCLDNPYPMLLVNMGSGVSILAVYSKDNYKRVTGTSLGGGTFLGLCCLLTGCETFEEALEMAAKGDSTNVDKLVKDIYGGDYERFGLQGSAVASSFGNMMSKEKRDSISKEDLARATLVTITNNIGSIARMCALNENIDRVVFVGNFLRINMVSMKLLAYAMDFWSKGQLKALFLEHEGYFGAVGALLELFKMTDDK

Assay [1] has as its target Pank1 (pantothenate kinase 1), endogenous in A549 cells (human (endogenous in A549)) (UniProt Q8TE04). Put plainly: condition: only serum-starved cells treated with 1 μM insulin or 100 ng/mL FGF-2 for 6 h; proximity ligation; in situ PLA (Duolink) on fixed A549 cells, endogenous proteins; cells serum-starved for 24 h, then treated with 1 μM insulin or 100 ng/mL FGF-2 for 6 h.

Assay [2] has the same target. Briefly: condition: only exponentially growing cells in full medium, without serum starvation or H2O2; proximity ligation; in situ PLA (Duolink) on fixed A549 cells, endogenous proteins; control cells growing exponentially in full medium, not starved or treated.
Assay [3] has the same target. Put plainly: proximity ligation; in situ PLA (Duolink) on fixed A549 cells, endogenous proteins; cells serum-starved for 24 h, or serum-starved and then treated with 500 μM H2O2.

No constants are given. Whether binding was seen depends on the method and setting. In cells and extracts the contact can be indirect. Some results given as binding are weak or reduced against the parent protein; the word gives no strength.

B1: CoA synthase (CoAsy) (enzyme, UniProt Q13057 1-564)
chain: MAVFRSGLLVLTTPLASLAPRLASILTSAARLVNHTLYVHLQPGMSLEGPAQPQSSPVQATFEVLDFITHLYAGADVHRHLDVRILLTNIRTKSTFLPPLPTSVQNLAHPPEVVLTDFQTLDGSQYNPVKQQLVRYATSCYSCCPRLASVLLYSDYGIGEVPVEPLDVPLPSTIRPASPVAGSPKQPVRGYYRGAVGGTFDRLHNAHKVLLSVACILAQEQLVVGVADKDLLKSKLLPELLQPYTERVEHLSEFLVDIKPSLTFDVIPLLDPYGPAGSDPSLEFLVVSEETYRGGMAINRFRLENDLEELALYQIQLLKDLRHTENEEDKVSSSSFRQRMLGNLLRPPYERPELPTCLYVIGLTGISGSGKSSIAQRLKGLGAFVIDSDHLGHRAYAPGGPAYQPVVEAFGTDILHKDGIINRKVLGSRVFGNKKQLKILTDIMWPIIAKLAREEMDRAVAEGKRVCVIDAAVLLEAGWQNLVHEVWTAVIPETEAVRRIVERDGLSEAAAQSRLQSQMSGQQLVEQSHVVLSTLWEPHITQRQVEKAWALLQKRIPKTHQALD
For B1, the binding result was “no binding” in assay [1], “no binding” in assay [2] and “binds” in assay [3].
